Data from the supplement of paper PMC12889115.
Some of the results follow. Values are raw readings; no control value is given beside them.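 In the initial screen, polymyxin B was used at a concentration that permeabilizes Salmonella's outer membrane but not its inner membrane. Maximum growth was set by DMSO wells with or without polymyxin B. Since plates varied, data were ranked per plate, and compounds giving the lowest OD600 advanced as hits.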

System: Salmonella enterica serovar Typhimurium SL1344
Test: bacterial growth OD600 after 18 h with compound and polymyxin B; higher = more bacterial growth (less inhibition)
Settings: 50 µM, Mueller-Hinton broth

Row | SMILES | bacterial growth OD600 (polymyxin B 0.75 µg/mL) | bacterial growth OD600 (polymyxin B 1 µg/mL)
1 | Cc1ccccc1C1(CC(=O)N2CCC(C(=O)N3CCCCC3)CC2)CC(=O)N(C2CCCC2)C1=O (centres undefined) | 0.012 | 
2 | CN(Cc1ccccc1)Cc1cc(C(=O)NCc2n[nH]c3c2CCCCC3)no1 | 0.841 | 
3 | CC1(C)CC(NC2CCN(c3cccc(NC(=O)c4cccc(C(F)(F)F)c4)c3)CC2)CCO1 (centres undefined) | 1.02 | 
4 | CSCCC(=O)N1CCCC(C(=O)c2ccc(-c3ccccc3)cc2)C1 (centres undefined) |  | 0.013
5 | Cc1ccccc1Oc1ncccc1CNC(=O)Cc1nonc1C |  | 0.844
6 | CN(CCn1ccnc1)c1ccc(-c2nc(-c3ccccc3F)no2)cn1 |  | 0.846
7 | CCC(CC)N1CCCC(C(=O)Nc2ccccc2-c2ccc(OC)cc2)C1 (centres undefined) |  | 1.09
8 | CN1CCN(C(=O)CCC2CCCN(C(=O)CCCCc3ccccc3)C2)CC1 (centres undefined) |  | 0.957
9 | O=C(CCC1(Cc2ccc3ccccc3c2)CCC(=O)N1)NC(c1ccccn1)C(F)(F)F (centres undefined) | 0.781 | 
10 | O=C(NCCC1=CCCCC1)C1CCC(=O)N(CCCN2CCOCC2)C1 (centres undefined) |  | 0.847
11 | CN1CCN([C@@H]2CCN(Cc3cccc4c3oc3ccccc34)C[C@H]2O)CC1 | 0.736 | 
12 | O=C(c1coc(COc2ccc(F)cc2Cl)n1)N1CCC[C@H]1CO |  | 1
13 | Cc1cccc(CNC(=O)C2CCCN(C3CCN(C(=O)C4CC4)CC3)C2)c1 (centres undefined) | 0.822 | 
14 | COc1cc(NC(=O)CCC2CCCN(CCCSC)C2)cc(OC)c1 (centres undefined) |  | 0.956
15 | COc1ccc(-c2nn(-c3ccccc3)cc2CN(C)Cc2nccs2)c(F)c1 | 0.012 | 
16 | CN(Cc1ccccc1)C(=O)c1nc2ccccn2c1CNCCN1CCCCC1 |  | 0.814
17 | CCOC(=O)CN(C)C(=O)CCC1(Cc2ccc3ccccc3c2)CCC(=O)N1 (centres undefined) | 0.781 | 
18 | COCCN1C(=O)NC(Cc2ccc(F)cc2)(C2CCN(C(=O)Cc3cccc(F)c3)CC2)C1=O (centres undefined) | 0.863 | 
19 | CCC(=O)N[C@@H]1c2ccccc2C2(CCN(C(=O)Cn3ccc(C)n3)CC2)[C@H]1OCc1cccnc1 | 0.783 | 

A draw from above in order of SMILES length, high to low:
Row | SMILES | bacterial growth OD600 (polymyxin B 0.75 µg/mL) | bacterial growth OD600 (polymyxin B 1 µg/mL)
18 | COCCN1C(=O)NC(Cc2ccc(F)cc2)(C2CCN(C(=O)Cc3cccc(F)c3)CC2)C1=O (centres undefined) | 0.863 | 
11 | CN1CCN([C@@H]2CCN(Cc3cccc4c3oc3ccccc34)C[C@H]2O)CC1 | 0.736 | 
13 | Cc1cccc(CNC(=O)C2CCCN(C3CCN(C(=O)C4CC4)CC3)C2)c1 (centres undefined) | 0.822 | 
12 | O=C(c1coc(COc2ccc(F)cc2Cl)n1)N1CCC[C@H]1CO |  | 1
14 | COc1cc(NC(=O)CCC2CCCN(CCCSC)C2)cc(OC)c1 (centres undefined) |  | 0.956
